PubChem BioAssay AID1259308 – NCATS | 2017

Purpose: 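Candidate targets for better recombinant protein yield in mammalian cells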 (primary screen)
Cell system: human HEK293 embryonic kidney cells stably expressing firefly luciferase (HEK-CMV-Luc2-Hygro)
Reagent: single siRNA against human genes, 0.8 pmol siRNA per well
Time to read-out: 72 h
Read-out: 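Luciferase light (ONE-Glo) measured on one replicate plate set and viability (CellTiter-Glo) on the other, scaled to a negative control siRNA, with robust z-scores and luciferase per cell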
Reading the numbers: total luciferase, z-score: higher = more reporter protein produced
Hit rule: 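Active when the median/MAD z-score for overall luciferase is greater than 3; a gene was taken forward for validation with new siRNAs if at least two of its three siRNAs passed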
Calls: active = raised luciferase; inactive = no rise
This is an unselected part of about 59,000 deposited reagents. In the full data, about 1,510 (2.6%) were called active. 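Calls use total luciferase alone and ignore viability, so some active siRNAs may act by altering cell number.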 Entries without a mark were called inactive. Reagents against one gene are numbered here. Further read-outs or replicates are left out here. No sequences are given here.

MSRB3 (methionine sulfoxide reductase B3) #1 | total luciferase, z-score: -0.712
MSRB3 (methionine sulfoxide reductase B3) #2 | total luciferase, z-score: 1.13
MSRB3 (methionine sulfoxide reductase B3) #3 | total luciferase, z-score: -1.62
ORAI2 (ORAI calcium release-activated calcium modulator 2) #1 | total luciferase, z-score: 2.85
ORAI2 (ORAI calcium release-activated calcium modulator 2) #2 | total luciferase, z-score: -0.838
ORAI2 (ORAI calcium release-activated calcium modulator 2) #3 | total luciferase, z-score: -0.0158

Entries above whose target name begins with O or o (3):
ORAI2 (ORAI calcium release-activated calcium modulator 2) #1 | total luciferase, z-score: 2.85
ORAI2 (ORAI calcium release-activated calcium modulator 2) #2 | total luciferase, z-score: -0.838
ORAI2 (ORAI calcium release-activated calcium modulator 2) #3 | total luciferase, z-score: -0.0158

Further entries:
ZNF26 (zinc finger protein 26) #1 | total luciferase, z-score: 1.64
ZNF26 (zinc finger protein 26) #2 | total luciferase, z-score: -0.533
ZNF26 (zinc finger protein 26) #3 | total luciferase, z-score: -0.146
TEAD4 (TEA domain transcription factor 4) #1 | total luciferase, z-score: 0.258
TEAD4 (TEA domain transcription factor 4) #2 | total luciferase, z-score: -1.6
TEAD4 (TEA domain transcription factor 4) #3 | total luciferase, z-score: -2.05
